Source: PubChem BioAssay AID1159578 (Peter MacCallum Cancer Centre, 2015)
Purpose: 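siRNA pools altering how lymphatic endothelial cells close a scratch wound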 (primary screen). System: human lymphatic endothelial cells. Reagents: siRNA pool against human genes, 40 nM. Timing: 48 h after transfection. Read-out: 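High-content imaging of dye-stained cells in a scratch assay measures filled wound area and nuclei per well; duplicate means given as ratio to mock and robust z-score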. Scale: migration robust z-score: higher = faster migration into the scratch; migration relative to mock: higher = more scratch area covered than mock; nuclei per well: higher = more cells in the well. Call rule: 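Pools averaging fewer than 3300 nuclei are never called; remaining pools count as changed when migration robust z lies outside -2 to 2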. Calls: active = migration changed; inactive = no migration change, or too few cells.
The deposit covers about 18,000 reagents; this is a random part of them. In the full data, about 1,030 (5.7%) were called active. 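Inactive calls also include pools with fewer than 3300 nuclei, whose migration was not assessed.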 Raw values vary from plate to plate and are shown uncorrected.

gene,migration robust z-score,migration class with cell-count check,migration relative to mock,"nuclei per well, duplicate mean",Call
HYCC1 (GeneID 84668),0.52,migration z between -2 and 2; enough cells,1.01,7191,inactive
SPO11 (GeneID 23626),-1.09,migration z between -2 and 2; enough cells,0.6,6029,inactive
CELA2A (GeneID 63036),0.94,migration z between -2 and 2; enough cells,0.98,5914,inactive
PRND (GeneID 23627),-1.29,migration z between -2 and 2; enough cells,0.55,5248,inactive
RAF1 (GeneID 5894),0,migration z between -2 and 2; enough cells,0.8,5998,inactive
KRT19 (GeneID 3880),1.17,migration z between -2 and 2; enough cells,1.19,6054,inactive
PCDHB7 (GeneID 56129),-2.04,migration z below -2; enough cells,0.36,4554,active
POMGNT1 (GeneID 55624),-0.54,migration z between -2 and 2; enough cells,0.74,5388,inactive
MXD3 (GeneID 83463),-0.05,migration z between -2 and 2; enough cells,0.88,6336,inactive
GARIN6 (GeneID 196472),-4.15,migration z below -2; enough cells,-0.2,6528,active
F11R (GeneID 50848),0.42,migration z between -2 and 2; enough cells,0.88,6054,inactive
SPRED2 (GeneID 200734),0.62,migration z between -2 and 2; enough cells,1.04,5795,inactive
ZNF688 (GeneID 146542),0.85,migration z between -2 and 2; enough cells,1.1,6912,inactive
RNF212 (GeneID 285498),-0.04,migration z between -2 and 2; enough cells,0.88,6249,inactive
ELF2 (GeneID 1998),0.94,migration z between -2 and 2; enough cells,0.99,5924,inactive
OSTM1 (GeneID 28962),0.52,migration z between -2 and 2; enough cells,1.02,5625,inactive
OR56A4 (GeneID 120793),0.45,migration z between -2 and 2; enough cells,0.99,5826,inactive
WDR5 (GeneID 11091),-0.16,migration z between -2 and 2; enough cells,0.84,5591,inactive
DRD4 (GeneID 1815),0.52,migration z between -2 and 2; enough cells,0.9,5976,inactive
PREX1 (GeneID 57580),-1.34,migration z between -2 and 2; enough cells,0.54,7552,inactive
LBHD1 (GeneID 79081),-1.38,migration z between -2 and 2; enough cells,0.52,5815,inactive
TCEA2 (GeneID 6919),0.23,migration z between -2 and 2; enough cells,0.85,5408,inactive
WEE1 (GeneID 7465),-4.59,under 3300 nuclei; migration not judged,-0.08,1352,inactive
ACOT8 (GeneID 10005),0.2,migration z between -2 and 2; enough cells,0.84,5290,inactive
RTKN (GeneID 6242),-2.34,migration z below -2; enough cells,0.28,4184,active
OLFML3 (GeneID 56944),-0.69,migration z between -2 and 2; enough cells,0.71,6225,inactive
CRH (GeneID 1392),-0.26,migration z between -2 and 2; enough cells,0.76,4510,inactive
INPP5K (GeneID 51763),-0.57,migration z between -2 and 2; enough cells,0.7,4883,inactive
REST (GeneID 5978),-1.34,migration z between -2 and 2; enough cells,0.55,5806,inactive
MAP3K6 (GeneID 9064),0.26,migration z between -2 and 2; enough cells,0.86,5736,inactive
RETREG1 (GeneID 54463),0.55,migration z between -2 and 2; enough cells,1.03,4544,inactive
ZNF627 (GeneID 199692),2.24,migration z above 2; enough cells,1.46,5800,active
DVL2 (GeneID 1856),0.18,migration z between -2 and 2; enough cells,0.94,5762,inactive
LPO (GeneID 4025),-0.24,migration z between -2 and 2; enough cells,0.76,6492,inactive
MANEA (GeneID 79694),1.07,migration z between -2 and 2; enough cells,1.16,6298,inactive
BBC3 (GeneID 27113),-0.87,migration z between -2 and 2; enough cells,0.66,6088,inactive
LCT (GeneID 3938),0.44,migration z between -2 and 2; enough cells,0.89,5690,inactive
HGFAC (GeneID 3083),-1.19,migration z between -2 and 2; enough cells,0.57,3992,inactive
FBXL12 (GeneID 54850),-1.48,under 3300 nuclei; migration not judged,0.52,3165,inactive
KANK2 (GeneID 25959),1.58,migration z between -2 and 2; enough cells,1.29,6384,inactive
BCLAF3 (GeneID 256643),-1.03,migration z between -2 and 2; enough cells,0.62,5583,inactive
MLLT6 (GeneID 4302),0.08,migration z between -2 and 2; enough cells,0.82,4334,inactive
ATP2B2 (GeneID 491),-1.14,migration z between -2 and 2; enough cells,0.58,5188,inactive
FNDC3B (GeneID 64778),-1.67,migration z between -2 and 2; enough cells,0.45,3512,inactive
GORASP2 (GeneID 26003),-0.02,migration z between -2 and 2; enough cells,0.88,6507,inactive
MADCAM1 (GeneID 8174),1.56,migration z between -2 and 2; enough cells,1.29,5533,inactive
C4orf50 (GeneID 389197),-0.78,migration z between -2 and 2; enough cells,0.68,5892,inactive
CLDN8 (GeneID 9073),0.52,migration z between -2 and 2; enough cells,1.02,5864,inactive
MEIOB (GeneID 254528),-1.06,migration z between -2 and 2; enough cells,0.61,5158,inactive
MAPK12 (GeneID 6300),0.13,migration z between -2 and 2; enough cells,0.83,5365,inactive
STX4 (GeneID 6810),-1.5,migration z between -2 and 2; enough cells,0.5,6223,inactive
TTYH3 (GeneID 80727),-0.83,migration z between -2 and 2; enough cells,0.64,4676,inactive
SUCLA2 (GeneID 8803),0.94,migration z between -2 and 2; enough cells,0.98,5948,inactive
MALSU1 (GeneID 115416),-0.48,migration z between -2 and 2; enough cells,0.76,7404,inactive
IP6K2 (GeneID 51447),0.18,migration z between -2 and 2; enough cells,0.84,5112,inactive
MBD2 (GeneID 8932),-0.76,migration z between -2 and 2; enough cells,0.66,4228,inactive
CT45A1 (GeneID 541466),0.21,migration z between -2 and 2; enough cells,0.94,5294,inactive

Ordered by “migration robust z-score” (high to low): some entries from above.
gene,migration robust z-score,migration class with cell-count check,migration relative to mock,"nuclei per well, duplicate mean",Call
MANEA (GeneID 79694),1.07,migration z between -2 and 2; enough cells,1.16,6298,inactive
LPO (GeneID 4025),-0.24,migration z between -2 and 2; enough cells,0.76,6492,inactive
BBC3 (GeneID 27113),-0.87,migration z between -2 and 2; enough cells,0.66,6088,inactive
